Source: PMC6299479
These are yes or no findings as the source states them, for the method shown.

Experiments:
[1] = target: Trichomonas vaginalis NlpC_A1 (TVAG_119910) (Trichomonas vaginalis) (UniProt A2D7D7); experiment: small-angle X-ray scattering (SAXS); dilution series of each protein in solution; no concentration dependence in the scattering profile; both purified
[2] = target: Trichomonas vaginalis NlpC_A2 (TVAG_457240) (Trichomonas vaginalis) (UniProt A2DC48); experiment: as above

Substance	binding [1]	binding [2]
Trichomonas vaginalis NlpC_A1 (TVAG_119910) (from UniProt A2D7D7 1-275) (enzyme)	no binding	
Trichomonas vaginalis NlpC_A2 (TVAG_457240) (from UniProt A2DC48 1-275) (enzyme)		no binding
